{"sequences": {"note": "Sequences of proteins named here, by UniProt entry; tags and fusion partners are left off.", "UniProt P50750": "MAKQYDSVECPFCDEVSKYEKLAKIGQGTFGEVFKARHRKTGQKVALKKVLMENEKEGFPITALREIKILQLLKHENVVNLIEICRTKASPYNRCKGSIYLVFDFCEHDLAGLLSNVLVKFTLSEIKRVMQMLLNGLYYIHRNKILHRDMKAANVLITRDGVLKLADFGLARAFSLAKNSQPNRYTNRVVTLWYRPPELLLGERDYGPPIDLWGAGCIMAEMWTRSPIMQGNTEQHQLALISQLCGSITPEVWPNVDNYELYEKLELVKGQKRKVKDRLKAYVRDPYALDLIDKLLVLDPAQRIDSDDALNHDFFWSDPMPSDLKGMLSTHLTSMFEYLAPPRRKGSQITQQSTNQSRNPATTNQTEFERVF"}, "source": "paper PMC12374588", "key": {"[1]": {"target": "T1, CREPT, endogenous (human (endogenous in SK-LU-1, H441, HEK-293T)) (UniProt Q9NQG5)", "T1 sequence": "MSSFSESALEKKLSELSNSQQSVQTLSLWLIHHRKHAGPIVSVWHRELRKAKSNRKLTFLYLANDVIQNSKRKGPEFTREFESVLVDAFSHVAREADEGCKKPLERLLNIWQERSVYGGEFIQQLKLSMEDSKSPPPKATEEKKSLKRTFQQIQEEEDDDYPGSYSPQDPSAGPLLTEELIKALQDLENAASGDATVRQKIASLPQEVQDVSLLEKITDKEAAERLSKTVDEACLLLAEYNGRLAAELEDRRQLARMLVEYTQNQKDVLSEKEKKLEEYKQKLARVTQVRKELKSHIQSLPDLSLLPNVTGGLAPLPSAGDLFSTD", "assay": "co-IP; endogenous proteins in SK-LU-1 and H441 lysates; also after mitogen stimulation or ERK inhibition"}, "[2]": {"target": "T2, HA-CREPT (cell cycle-related and expression elevated protein in tumor) (UniProt Q9NQG5)", "T2 sequence": "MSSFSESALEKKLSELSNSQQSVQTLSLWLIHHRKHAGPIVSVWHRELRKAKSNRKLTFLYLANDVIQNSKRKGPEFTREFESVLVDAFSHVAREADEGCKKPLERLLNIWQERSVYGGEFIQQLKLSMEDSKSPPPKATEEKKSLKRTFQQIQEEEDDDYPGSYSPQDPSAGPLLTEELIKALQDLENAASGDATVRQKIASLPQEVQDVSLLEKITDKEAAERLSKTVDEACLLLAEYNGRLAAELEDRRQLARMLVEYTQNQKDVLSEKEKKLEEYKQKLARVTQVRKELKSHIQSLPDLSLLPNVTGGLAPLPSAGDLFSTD", "assay": "co-IP; in vitro binding assay: purified proteins incubated together at 4 °C overnight, then immunoprecipitated with anti-HA or anti-CREPT antibody; both purified"}, "[3]": {"target": "T3, CREPT purified from E. coli (UniProt Q9NQG5)", "T3 sequence": "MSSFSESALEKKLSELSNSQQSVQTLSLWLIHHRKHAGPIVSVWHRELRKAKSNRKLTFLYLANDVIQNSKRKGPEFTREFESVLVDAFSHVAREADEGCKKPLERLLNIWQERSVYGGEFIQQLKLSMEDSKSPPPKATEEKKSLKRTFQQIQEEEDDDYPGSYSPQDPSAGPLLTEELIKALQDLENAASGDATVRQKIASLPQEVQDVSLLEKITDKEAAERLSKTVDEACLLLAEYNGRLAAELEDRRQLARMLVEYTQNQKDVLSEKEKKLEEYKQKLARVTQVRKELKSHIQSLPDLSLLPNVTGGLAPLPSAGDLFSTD", "assay": "co-IP; in vitro binding assay: purified proteins incubated together at 4 °C overnight, then immunoprecipitated with anti-HA or anti-CREPT antibody; both purified"}, "[4]": {"target": "Flag-CDK9 (cyclin-dependent kinase 9) (UniProt P50750)", "assay": "co-IP; HEK-293T co-transfected with HA-CREPT and Flag-CDK9; IP with anti-Flag (M2), blot anti-HA and anti-FLAG"}, "[5]": {"target": "Flag-CDK9 (cyclin-dependent kinase 9) (UniProt P50750)", "assay": "co-IP; Myc-tagged CREPT, CID or CCT with Flag-CDK9; blots with anti-Myc (9E10) and anti-Flag (M2); cells not given"}}, "note": "Results are given in words; binding and its absence hold for the method and conditions named. For part of these data: Binding seen in cells or lysates may run through a third protein. Some results given as binding are weak or reduced against the parent protein; the word gives no strength. For part of these data: Where a sequence is shown, tags or fusion partners need not be part of it.", "data": [{"molecule": "CDK9, endogenous (from UniProt P50750 1-372) (enzyme)", "values": [{"measurement": "binding", "setting": "[1]", "value": "binds"}]}, {"molecule": "Flag-CDK9 (cyclin-dependent kinase 9) (from UniProt P50750 1-372) (enzyme)", "values": [{"measurement": "binding", "setting": "[2]", "value": "binds"}, {"measurement": "binding", "setting": "[3]", "value": "binds"}]}, {"molecule": "HA-CREPT (cell cycle-related and expression elevated protein in tumor) (protein, UniProt Q9NQG5 1-326) MSSFSESALEKKLSELSNSQQSVQTLSLWLIHHRKHAGPIVSVWHRELRKAKSNRKLTFLYLANDVIQNSKRKGPEFTREFESVLVDAFSHVAREADEGCKKPLERLLNIWQERSVYGGEFIQQLKLSMEDSKSPPPKATEEKKSLKRTFQQIQEEEDDDYPGSYSPQDPSAGPLLTEELIKALQDLENAASGDATVRQKIASLPQEVQDVSLLEKITDKEAAERLSKTVDEACLLLAEYNGRLAAELEDRRQLARMLVEYTQNQKDVLSEKEKKLEEYKQKLARVTQVRKELKSHIQSLPDLSLLPNVTGGLAPLPSAGDLFSTD", "values": [{"measurement": "binding", "setting": "[4]", "value": "binds"}]}, {"molecule": "Myc-tagged CID domain of CREPT (domain or fragment, UniProt Q9NQG5 2-133) SSFSESALEKKLSELSNSQQSVQTLSLWLIHHRKHAGPIVSVWHRELRKAKSNRKLTFLYLANDVIQNSKRKGPEFTREFESVLVDAFSHVAREADEGCKKPLERLLNIWQERSVYGGEFIQQLKLSMEDSK", "values": [{"measurement": "binding", "setting": "[5]", "value": "binds"}]}, {"molecule": "Myc-tagged CREPT (protein, UniProt Q9NQG5 1-326) MSSFSESALEKKLSELSNSQQSVQTLSLWLIHHRKHAGPIVSVWHRELRKAKSNRKLTFLYLANDVIQNSKRKGPEFTREFESVLVDAFSHVAREADEGCKKPLERLLNIWQERSVYGGEFIQQLKLSMEDSKSPPPKATEEKKSLKRTFQQIQEEEDDDYPGSYSPQDPSAGPLLTEELIKALQDLENAASGDATVRQKIASLPQEVQDVSLLEKITDKEAAERLSKTVDEACLLLAEYNGRLAAELEDRRQLARMLVEYTQNQKDVLSEKEKKLEEYKQKLARVTQVRKELKSHIQSLPDLSLLPNVTGGLAPLPSAGDLFSTD", "values": [{"measurement": "binding", "setting": "[5]", "value": "binds"}]}]}
